The source of these data is paper PMC4040711.

By UniProt entry, the sequences of proteins in these tests, tags left out. Where a name states a change or a piece, a line headed by the entry shows the natural chain unless it says otherwise. Chains listed by the source or under a name are the forms on record and can include a tag or linker.
pyruvate kinase muscle isozyme 2 (PKM2), rat (rat (endogenous in NSCs and glioma spheroids)) (P11980, form named): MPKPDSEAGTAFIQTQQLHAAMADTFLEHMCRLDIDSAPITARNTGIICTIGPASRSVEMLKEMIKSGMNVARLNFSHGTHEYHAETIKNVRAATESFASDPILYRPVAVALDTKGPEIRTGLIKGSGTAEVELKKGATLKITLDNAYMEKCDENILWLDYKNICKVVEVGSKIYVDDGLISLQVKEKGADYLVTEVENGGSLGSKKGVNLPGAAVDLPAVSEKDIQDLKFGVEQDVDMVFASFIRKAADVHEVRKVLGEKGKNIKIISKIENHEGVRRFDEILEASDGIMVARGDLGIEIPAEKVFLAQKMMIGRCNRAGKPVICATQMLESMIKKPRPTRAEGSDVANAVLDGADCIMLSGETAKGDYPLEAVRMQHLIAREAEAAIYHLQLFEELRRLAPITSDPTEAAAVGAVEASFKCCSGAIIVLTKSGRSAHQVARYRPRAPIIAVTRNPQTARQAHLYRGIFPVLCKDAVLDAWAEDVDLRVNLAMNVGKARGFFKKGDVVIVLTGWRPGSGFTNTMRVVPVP
UniProt P14618: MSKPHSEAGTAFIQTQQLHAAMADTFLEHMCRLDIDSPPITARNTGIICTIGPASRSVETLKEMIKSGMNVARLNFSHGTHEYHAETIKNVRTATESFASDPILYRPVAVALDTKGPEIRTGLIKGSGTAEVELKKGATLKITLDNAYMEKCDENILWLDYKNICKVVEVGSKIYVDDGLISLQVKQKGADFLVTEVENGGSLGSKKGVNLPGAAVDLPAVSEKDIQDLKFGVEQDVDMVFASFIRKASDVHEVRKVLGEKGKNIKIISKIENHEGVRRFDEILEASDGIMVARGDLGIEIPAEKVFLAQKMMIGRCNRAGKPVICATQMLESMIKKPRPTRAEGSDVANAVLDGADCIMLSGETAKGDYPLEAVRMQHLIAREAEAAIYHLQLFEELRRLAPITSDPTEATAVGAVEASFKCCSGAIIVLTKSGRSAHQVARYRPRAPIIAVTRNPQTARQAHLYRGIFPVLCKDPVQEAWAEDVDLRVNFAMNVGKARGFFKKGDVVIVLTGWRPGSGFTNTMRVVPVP
UniProt Q6MG27: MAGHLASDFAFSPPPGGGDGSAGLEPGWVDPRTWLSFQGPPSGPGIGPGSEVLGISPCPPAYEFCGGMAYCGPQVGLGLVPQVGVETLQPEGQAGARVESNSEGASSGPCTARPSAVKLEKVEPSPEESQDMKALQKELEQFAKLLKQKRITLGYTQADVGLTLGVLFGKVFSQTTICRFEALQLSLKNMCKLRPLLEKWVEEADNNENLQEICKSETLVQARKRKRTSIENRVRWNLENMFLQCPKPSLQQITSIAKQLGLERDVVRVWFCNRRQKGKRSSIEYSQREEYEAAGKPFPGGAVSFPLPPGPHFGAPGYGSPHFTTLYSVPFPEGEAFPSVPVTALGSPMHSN
UniProt Q01860: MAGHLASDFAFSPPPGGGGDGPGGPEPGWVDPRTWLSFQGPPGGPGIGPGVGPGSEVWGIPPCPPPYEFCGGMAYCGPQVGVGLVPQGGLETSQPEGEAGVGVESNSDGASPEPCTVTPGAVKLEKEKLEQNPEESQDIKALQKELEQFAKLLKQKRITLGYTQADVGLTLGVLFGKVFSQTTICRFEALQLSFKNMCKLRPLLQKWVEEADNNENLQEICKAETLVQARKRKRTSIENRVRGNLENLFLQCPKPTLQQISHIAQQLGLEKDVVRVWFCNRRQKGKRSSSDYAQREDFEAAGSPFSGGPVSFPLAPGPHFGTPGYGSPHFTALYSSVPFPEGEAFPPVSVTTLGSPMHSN

No constants are given. Whether binding was seen depends on the method and setting. Binding seen in cells or lysates may run through a third protein. Some entries that bind do so weakly or less than the wild type.

Test [1] addresses pyruvate kinase muscle isozyme 2 (PKM2), rat (rat (endogenous in NSCs and glioma spheroids)) (UniProt P11980). Description: proximity ligation; Duolink PLA on dissociated, fixed, untreated rat glioma spheroids.
For test [2] the target is unchanged. Nature of the test: proximity ligation; Duolink PLA on dissociated, fixed, DCA-treated rat glioma spheroids.
The target is the same in test [3]. Description: co-IP; PKM2 immunoprecipitated from lysates of DCA-treated rat glioma spheroids (P7sph) (CHAPS buffer, Catch and Release kit), Oct4 by immunoblot.
Test [4] shares this target. Description: co-IP; PKM2 immunoprecipitated from rat NSC lysates (CHAPS buffer: 10 mM Hepes, 150 mM NaCl, 1% CHAPS, pH 7.4; Catch and Release kit), Oct4 by immunoblot; cells untreated or treated with DCA.
Test [5] addresses pyruvate kinase muscle isozyme 2 (PKM2), human (human (endogenous in primary GBM cultures)) (UniProt P14618). Nature of the test: proximity ligation; Duolink PLA on fixed human glioma spheroids, control or DCA-treated; hypoxia (5% O2) for HIF-1, normoxia (20% O2) for H3.

For the substance “octamer-binding transcription factor 4 (Oct4), rat (from UniProt Q6MG27 1-352)”, the binding result is given as “binds weakly” in test [1], “binds” in test [2], “binds” in test [3] and “binds” in test [4].
As to “octamer-binding transcription factor 4 (Oct4), human (from UniProt Q01860 1-360) (other; other documents disagree on this pair)”, the binding entry in test [5] is “binds”.
